{
  "sequences": {"note": "Protein sequences, listed by entry. Tags and fused reporters are not part of them.", "UniProt Q14643": "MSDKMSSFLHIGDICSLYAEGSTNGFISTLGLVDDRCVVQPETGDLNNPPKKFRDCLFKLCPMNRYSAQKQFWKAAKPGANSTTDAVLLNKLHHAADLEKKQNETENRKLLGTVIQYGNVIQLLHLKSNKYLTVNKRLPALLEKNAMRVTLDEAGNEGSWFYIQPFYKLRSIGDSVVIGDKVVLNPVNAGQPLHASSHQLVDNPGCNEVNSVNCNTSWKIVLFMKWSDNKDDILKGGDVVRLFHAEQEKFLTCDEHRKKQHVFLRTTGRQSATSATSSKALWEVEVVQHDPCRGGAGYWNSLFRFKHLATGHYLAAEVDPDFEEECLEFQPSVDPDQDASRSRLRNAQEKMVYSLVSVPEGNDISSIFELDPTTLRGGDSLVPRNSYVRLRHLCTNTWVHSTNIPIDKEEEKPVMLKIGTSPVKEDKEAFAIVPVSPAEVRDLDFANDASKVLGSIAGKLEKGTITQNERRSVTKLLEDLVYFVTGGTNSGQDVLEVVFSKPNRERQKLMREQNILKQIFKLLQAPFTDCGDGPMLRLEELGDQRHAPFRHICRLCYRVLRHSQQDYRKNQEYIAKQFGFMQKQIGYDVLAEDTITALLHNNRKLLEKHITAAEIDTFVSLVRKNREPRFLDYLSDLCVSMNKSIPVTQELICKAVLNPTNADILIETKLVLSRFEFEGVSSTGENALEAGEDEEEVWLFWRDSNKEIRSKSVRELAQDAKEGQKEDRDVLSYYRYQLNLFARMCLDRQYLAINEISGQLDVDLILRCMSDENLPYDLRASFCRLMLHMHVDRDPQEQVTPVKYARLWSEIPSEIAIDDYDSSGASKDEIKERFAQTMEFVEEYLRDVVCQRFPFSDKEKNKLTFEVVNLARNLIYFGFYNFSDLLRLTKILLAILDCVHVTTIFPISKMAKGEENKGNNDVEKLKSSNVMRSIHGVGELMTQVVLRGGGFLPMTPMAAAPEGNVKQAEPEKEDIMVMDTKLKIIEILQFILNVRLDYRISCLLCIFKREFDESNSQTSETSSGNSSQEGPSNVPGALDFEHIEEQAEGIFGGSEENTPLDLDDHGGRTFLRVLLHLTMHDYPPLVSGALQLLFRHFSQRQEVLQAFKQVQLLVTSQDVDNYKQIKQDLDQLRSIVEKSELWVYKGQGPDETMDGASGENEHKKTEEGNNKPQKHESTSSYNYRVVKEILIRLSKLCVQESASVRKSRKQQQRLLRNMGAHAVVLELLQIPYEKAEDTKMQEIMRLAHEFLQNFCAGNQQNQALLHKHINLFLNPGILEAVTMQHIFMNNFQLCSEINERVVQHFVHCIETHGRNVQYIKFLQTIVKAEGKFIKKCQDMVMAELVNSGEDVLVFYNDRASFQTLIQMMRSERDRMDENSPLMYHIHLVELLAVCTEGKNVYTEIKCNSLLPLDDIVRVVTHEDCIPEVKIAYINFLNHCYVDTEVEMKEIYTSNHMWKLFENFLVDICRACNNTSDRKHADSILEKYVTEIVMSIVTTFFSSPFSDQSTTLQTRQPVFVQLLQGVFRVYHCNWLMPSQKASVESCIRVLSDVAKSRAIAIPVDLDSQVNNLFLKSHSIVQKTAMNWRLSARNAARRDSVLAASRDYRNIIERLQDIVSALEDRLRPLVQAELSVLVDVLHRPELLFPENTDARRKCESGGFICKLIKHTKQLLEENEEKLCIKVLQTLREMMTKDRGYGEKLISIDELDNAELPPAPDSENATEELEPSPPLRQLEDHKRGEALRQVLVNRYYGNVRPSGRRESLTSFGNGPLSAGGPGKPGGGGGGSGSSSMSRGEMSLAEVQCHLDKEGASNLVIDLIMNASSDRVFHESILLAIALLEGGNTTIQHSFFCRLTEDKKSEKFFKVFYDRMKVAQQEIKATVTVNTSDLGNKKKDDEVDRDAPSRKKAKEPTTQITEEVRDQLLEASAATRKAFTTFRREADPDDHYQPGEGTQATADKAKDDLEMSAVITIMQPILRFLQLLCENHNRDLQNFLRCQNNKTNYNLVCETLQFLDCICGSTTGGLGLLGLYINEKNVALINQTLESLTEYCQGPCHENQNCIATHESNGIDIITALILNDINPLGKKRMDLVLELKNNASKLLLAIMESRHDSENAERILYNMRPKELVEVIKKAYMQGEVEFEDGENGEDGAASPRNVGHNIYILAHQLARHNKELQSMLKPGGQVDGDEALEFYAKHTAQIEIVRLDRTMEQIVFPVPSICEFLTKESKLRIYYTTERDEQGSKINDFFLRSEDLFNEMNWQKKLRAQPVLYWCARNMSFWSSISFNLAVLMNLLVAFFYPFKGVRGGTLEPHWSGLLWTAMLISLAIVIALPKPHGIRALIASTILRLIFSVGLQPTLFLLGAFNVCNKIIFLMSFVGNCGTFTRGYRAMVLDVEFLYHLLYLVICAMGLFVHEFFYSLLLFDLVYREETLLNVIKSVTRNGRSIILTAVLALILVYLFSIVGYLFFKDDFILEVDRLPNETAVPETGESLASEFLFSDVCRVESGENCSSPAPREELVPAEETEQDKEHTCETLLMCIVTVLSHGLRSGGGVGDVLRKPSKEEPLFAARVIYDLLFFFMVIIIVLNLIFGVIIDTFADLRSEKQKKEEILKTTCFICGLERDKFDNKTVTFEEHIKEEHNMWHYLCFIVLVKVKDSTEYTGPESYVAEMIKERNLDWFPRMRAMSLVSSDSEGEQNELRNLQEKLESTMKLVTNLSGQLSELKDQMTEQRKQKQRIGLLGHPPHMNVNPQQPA"},
  "source": "patent US20050260657A1",
  "key": {"[1]": {"biological_target": "endogenous IP3R1 of HeLa cells (UniProt Q14643)", "assay": "co-immunoprecipitation from DSP-crosslinked HeLa cells, western blot"}, "[2]": {"biological_target": "endogenous IP3R1 of HeLa cells (UniProt Q14643)", "assay": "co-immunoprecipitation from untransfected HeLa cell lysate"}},
  "note": "No constants are given. Whether binding was seen depends on the method and setting. Binding seen in cells or lysates may run through a third protein. Some entries that bind do so weakly or less than the wild type.",
  "data": [
    {"binder": "endogenous ERp44 of HeLa cells (protein, human, UniProt Q9BS26 30-406, looked up) EITSLDTENIDEILNNADVALVNFYADWCRFSQMLHPIFEEASDVIKEEFPNENQVVFARVDCDQHSDIAQRYRISKYPTLKLFRNGMMMKREYRGQRSVKALADYIRQQKSDPIQEIRDLAEITTLDRSKRNIIGYFEQKDSDNYRVFERVANILHDDCAFLSAFGDVSKPERYSGDNIIYKPPGHSAPDMVYLGAMTNFDVTYNWIQDKCVPLVREITFENGEELTEEGLPFLILFHMKEDTESLEIFQNEVARQLISEKGTINFLHADCDKFRHPLLHIQKTPADCPVIAIDSFRHMYVFGDFKDVLIPGKLKQFVFDLHSGKLHREFHHGPDPTDTAPGEQAQDVASSPPESSFQKLAPSEYRYTLLRDRDEL", "values": [
      {"measurement": "binding", "setting": "[1]", "result": "binds"},
      {"measurement": "binding", "setting": "[2]", "result": "binds"}
    ]}
  ]
}
